According to patent publication US20040139485A1:
Results are given in words; binding and its absence hold for the method and conditions named. For some assays here: Binding seen in cells or lysates may run through a third protein. Some binding calls cover weakened binding; strength is not graded here. For some assays here: Sequences can lack the tags named with a protein. Each block holds one binder with its values, some of them ahead of it.

Tests used:
[1] = biological target: T1, fragment of Rb (1.9 kb BsmHI-SalI fragment of Rb from pASRB2) cloned into pGBT9 (UniProt P06400); assay: yeast two-hybrid (GAL4), X-gal staining and growth without histidine
T1 sequence (looked up): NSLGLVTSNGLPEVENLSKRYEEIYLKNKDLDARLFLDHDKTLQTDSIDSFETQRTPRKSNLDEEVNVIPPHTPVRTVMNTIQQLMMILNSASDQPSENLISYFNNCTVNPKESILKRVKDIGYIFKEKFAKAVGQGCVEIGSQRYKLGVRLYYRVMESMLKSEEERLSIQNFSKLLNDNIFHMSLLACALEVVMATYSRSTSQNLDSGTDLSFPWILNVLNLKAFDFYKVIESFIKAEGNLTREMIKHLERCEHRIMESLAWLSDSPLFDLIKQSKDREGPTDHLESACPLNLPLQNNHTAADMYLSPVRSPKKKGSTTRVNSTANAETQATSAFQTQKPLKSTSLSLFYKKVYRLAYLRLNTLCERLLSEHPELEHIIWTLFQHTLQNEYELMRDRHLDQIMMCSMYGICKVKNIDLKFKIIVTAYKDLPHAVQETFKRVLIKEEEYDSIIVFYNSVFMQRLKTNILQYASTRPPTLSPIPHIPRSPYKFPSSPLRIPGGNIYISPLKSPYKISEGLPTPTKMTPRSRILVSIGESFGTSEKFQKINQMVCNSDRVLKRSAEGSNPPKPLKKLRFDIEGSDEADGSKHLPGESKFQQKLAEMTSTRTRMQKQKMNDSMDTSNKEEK

[2] = biological target: T1, fragment of Rb (1.9 kb BsmHI-SalI fragment of Rb from pASRB2) cloned into pGBT9; assay: yeast two-hybrid (GAL4), growth on selective media and β-galactosidase
[3] = biological target: T2, pRb (retinoblastoma gene product), endogenous in rat liver epithelial cell extracts (rat) (UniProt P33568); assay: co-immunoprecipitation from phi 13 whole cell extracts, Western blot
T2 sequence (looked up): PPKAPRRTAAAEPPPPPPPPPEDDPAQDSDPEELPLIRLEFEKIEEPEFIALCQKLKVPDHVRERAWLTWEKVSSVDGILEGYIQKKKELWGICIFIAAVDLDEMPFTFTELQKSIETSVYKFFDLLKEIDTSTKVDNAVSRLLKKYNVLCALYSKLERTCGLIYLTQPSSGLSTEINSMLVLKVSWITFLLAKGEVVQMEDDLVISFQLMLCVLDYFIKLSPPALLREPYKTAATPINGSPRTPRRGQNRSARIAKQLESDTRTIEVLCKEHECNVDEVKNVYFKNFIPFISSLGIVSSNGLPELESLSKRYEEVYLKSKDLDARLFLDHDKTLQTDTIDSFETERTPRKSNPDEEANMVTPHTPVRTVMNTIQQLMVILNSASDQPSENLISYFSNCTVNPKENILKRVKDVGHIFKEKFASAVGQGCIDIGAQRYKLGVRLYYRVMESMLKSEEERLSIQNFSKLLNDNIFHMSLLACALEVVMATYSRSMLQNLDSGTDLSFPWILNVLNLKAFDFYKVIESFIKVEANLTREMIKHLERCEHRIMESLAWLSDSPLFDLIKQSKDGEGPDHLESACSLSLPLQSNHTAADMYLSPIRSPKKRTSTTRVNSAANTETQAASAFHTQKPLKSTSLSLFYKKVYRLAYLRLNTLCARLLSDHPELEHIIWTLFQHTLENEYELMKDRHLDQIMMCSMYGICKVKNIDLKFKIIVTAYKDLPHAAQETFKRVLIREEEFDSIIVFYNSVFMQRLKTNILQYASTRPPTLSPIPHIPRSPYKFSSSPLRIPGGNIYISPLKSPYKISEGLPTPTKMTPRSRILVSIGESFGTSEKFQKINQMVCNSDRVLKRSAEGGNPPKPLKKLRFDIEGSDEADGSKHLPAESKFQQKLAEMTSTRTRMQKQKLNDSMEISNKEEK

[4] = biological target: T2, pRb (retinoblastoma gene product), endogenous in rat liver epithelial cell extracts (rat); assay: co-immunoprecipitation from RLE whole cell lysates with anti-BOG, anti-pRb, anti-p130 and anti-p107, Western blot
[5] = biological target: T2, pRb (retinoblastoma gene product), endogenous in rat liver epithelial cell extracts (rat); assay: co-immunoprecipitation from whole cell lysates, Western blot

binding [1]: binds | binding [2]: binds
B1: BOG, complete open reading frame, cloned into pGAD424 (GAL4 two-hybrid fusion) (protein, not shown: large carriers)
chain: MVSPTKAVIVPGNGGGDVATHGWYGWVRKGLEQIPGFQCLAKNMPDPITARESIWLPFMETELHCDEKTIIIGHSSGAIAAMRYAETHQVYALILVSAYTSDLGDENERASGYFSRPWQWEKIKANCPHIIQFGSTDDPFLPWKEQQEVADSWTPNCTNSLTVVTFRTQSSMN

binding [3]: binds | binding [4]: binds | binding [5]: binds
B2: rat BOG (B5T Over-expressed Gene) protein (protein)
chain: B1 chain
